This is an account of results in PMC7719122.

Protein sequences, listed by entry. Tags and fused reporters are not part of them. Lines headed by an entry give the natural chain unless they say otherwise; changes in a name come on top. Chains listed by the source or under a name are the forms on record and can include a tag or linker. Residues count along the entry.
UniProt P11362, residues 22-822: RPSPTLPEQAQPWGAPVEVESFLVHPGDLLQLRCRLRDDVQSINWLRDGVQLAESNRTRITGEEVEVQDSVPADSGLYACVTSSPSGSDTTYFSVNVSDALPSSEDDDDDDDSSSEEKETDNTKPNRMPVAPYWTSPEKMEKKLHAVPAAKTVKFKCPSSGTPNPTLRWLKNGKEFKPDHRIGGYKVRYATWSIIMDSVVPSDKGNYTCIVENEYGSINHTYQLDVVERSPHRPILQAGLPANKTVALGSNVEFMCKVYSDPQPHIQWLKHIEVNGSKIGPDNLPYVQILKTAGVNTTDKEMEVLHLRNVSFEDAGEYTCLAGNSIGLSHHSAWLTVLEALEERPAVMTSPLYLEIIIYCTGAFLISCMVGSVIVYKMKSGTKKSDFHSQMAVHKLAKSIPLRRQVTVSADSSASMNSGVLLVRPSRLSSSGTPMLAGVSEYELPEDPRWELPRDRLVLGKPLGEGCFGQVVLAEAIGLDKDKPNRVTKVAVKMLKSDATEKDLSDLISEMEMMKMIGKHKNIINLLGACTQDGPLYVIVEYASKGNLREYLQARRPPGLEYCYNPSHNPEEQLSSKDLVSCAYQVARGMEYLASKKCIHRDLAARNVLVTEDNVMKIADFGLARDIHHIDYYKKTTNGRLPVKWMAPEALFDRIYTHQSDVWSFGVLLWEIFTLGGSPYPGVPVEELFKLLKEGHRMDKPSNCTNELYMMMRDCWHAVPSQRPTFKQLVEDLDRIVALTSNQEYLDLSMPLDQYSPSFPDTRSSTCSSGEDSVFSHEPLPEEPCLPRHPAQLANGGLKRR
WT ERBB3, endogenous in AGS cells (P21860, residues 20-1342): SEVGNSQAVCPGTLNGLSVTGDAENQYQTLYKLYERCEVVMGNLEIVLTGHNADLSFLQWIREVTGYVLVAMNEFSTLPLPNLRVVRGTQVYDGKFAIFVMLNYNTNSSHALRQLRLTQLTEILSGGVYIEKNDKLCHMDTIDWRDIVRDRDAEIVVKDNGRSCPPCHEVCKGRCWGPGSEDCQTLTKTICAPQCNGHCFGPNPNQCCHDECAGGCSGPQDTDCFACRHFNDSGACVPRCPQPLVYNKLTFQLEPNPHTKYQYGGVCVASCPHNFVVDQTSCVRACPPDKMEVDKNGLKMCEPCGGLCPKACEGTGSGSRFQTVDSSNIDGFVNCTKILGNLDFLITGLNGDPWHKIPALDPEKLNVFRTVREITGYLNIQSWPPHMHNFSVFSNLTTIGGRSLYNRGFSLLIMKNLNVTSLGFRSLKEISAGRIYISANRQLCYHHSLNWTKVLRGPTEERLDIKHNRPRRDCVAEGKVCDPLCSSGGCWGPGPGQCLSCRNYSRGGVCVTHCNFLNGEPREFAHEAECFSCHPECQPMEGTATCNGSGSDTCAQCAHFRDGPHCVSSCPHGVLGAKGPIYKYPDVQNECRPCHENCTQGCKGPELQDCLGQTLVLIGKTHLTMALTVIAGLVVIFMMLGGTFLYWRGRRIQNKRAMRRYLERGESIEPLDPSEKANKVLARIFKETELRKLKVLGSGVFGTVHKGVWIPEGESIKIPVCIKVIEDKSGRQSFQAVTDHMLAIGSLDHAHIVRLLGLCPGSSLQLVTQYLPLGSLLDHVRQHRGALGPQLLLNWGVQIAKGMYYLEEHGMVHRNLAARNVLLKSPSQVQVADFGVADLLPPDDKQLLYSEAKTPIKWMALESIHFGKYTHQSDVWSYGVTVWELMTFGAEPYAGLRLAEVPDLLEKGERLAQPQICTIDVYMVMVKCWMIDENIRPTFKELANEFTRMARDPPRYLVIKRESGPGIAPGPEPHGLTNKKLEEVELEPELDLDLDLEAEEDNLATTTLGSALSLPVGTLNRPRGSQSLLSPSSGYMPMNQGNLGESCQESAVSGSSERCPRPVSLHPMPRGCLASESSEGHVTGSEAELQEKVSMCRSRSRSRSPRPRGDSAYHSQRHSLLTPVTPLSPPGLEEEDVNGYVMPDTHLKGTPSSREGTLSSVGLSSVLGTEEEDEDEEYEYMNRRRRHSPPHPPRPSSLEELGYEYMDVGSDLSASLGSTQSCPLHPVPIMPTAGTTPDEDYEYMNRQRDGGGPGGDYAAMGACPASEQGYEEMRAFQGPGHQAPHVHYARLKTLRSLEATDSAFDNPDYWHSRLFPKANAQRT
FLAG-tagged ERBB3-E928G (P21860, form named): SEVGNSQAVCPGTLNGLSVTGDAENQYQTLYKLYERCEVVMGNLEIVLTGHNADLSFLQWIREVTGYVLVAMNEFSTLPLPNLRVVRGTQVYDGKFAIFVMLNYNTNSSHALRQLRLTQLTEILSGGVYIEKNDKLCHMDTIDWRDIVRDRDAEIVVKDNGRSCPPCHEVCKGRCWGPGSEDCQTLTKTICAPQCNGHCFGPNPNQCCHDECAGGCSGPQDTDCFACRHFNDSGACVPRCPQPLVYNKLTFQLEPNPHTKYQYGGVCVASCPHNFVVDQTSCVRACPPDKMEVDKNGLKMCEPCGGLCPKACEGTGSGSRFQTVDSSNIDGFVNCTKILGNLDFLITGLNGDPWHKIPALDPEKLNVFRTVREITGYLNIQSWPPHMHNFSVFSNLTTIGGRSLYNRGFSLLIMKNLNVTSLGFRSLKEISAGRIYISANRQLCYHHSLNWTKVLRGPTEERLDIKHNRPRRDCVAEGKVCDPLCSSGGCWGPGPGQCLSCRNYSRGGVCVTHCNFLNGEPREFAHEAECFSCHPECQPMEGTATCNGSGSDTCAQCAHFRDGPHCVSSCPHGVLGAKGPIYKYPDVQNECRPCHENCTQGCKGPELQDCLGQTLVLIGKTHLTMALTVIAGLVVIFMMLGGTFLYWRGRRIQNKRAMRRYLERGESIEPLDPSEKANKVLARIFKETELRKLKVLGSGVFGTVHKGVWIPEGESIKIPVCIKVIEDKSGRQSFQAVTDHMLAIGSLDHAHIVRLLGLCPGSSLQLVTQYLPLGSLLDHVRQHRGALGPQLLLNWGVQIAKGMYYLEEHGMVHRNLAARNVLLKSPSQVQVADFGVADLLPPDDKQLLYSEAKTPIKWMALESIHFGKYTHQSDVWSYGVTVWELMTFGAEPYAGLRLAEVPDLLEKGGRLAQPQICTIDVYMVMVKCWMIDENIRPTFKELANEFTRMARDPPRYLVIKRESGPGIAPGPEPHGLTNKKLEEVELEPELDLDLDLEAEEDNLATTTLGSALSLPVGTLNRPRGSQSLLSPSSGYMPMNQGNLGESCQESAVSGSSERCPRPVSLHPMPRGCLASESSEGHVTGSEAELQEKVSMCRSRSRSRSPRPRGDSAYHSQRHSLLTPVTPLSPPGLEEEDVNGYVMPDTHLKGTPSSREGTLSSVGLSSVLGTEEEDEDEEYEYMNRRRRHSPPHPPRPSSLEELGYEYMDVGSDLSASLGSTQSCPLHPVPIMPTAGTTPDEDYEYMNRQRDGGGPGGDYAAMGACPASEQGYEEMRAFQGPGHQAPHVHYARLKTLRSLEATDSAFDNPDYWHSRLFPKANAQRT

The target in assay [1] is FGFR1, endogenous in CW-2 and AGS cells (human (endogenous in CW-2 and AGS)) (UniProt P11362). Kind of assay: co-IP; endogenous ERBB3 and FGFR1 in CW-2 and AGS cells; which protein was precipitated is not told.
For a further assay, the target named is MYC-tagged FGFR1 (UniProt P11362). Kind of assay: co-IP; lysates of HEK293T cells co-transfected with FLAG-tagged ERBB3-E928G and MYC-tagged FGFR1, 3 days after transfection; Co-IP using anti-FLAG and anti-MYC antibodies.

These are yes or no findings as the source states them, for the method shown. In cells and extracts the contact can be indirect. Some binding calls cover weakened binding; strength is not graded here.

Regarding “E928G mutant ERBB3, endogenous in CW-2 cells (from UniProt P21860 20-1342) (receptor)”, in assay [1], the binding entry was “binds”. For the substance “FLAG-tagged ERBB3-E928G (from UniProt P21860 20-1342) (receptor)”, the binding entry with MYC-tagged FGFR1 is recorded as “binds”.

For the substance “WT ERBB3, endogenous in AGS cells (from UniProt P21860 20-1342) (receptor)”, in assay [1], the binding result was “no binding”.
